Results published in EP0411395A2, “Use of ACE inhibitors for atherosclerosis-prophylaxis” (THERA PATENT-VERWALTUNGS-GmbH, priority 1989, dated 1991).

Experiment: Body weight follow-up in the same three-year placebo-controlled study
Format: in vivo, Patienten
Conditions: 2 x 3 mg tgl., Idealgewicht: (Größe (cm) -100)-15%
Description: Es wurden 122 übergewichtige Personen ausgesucht, die im Mittel 25 % Übergewicht hatten. Diese Patienten gaben nach Aufklärung ihr Einverständnis, an dieser Studie über 3 Jahre teilzunehmen. Sie hatten bereits 5 bis 10 Versuche einer Gewichtsabnahme hinter sich, die alle […] verlaufen waren. Ein Diabetes mellitus war nach der Definition des WHO-Reports (Techn. Rep. Ser. 646, 1 bis 80, 1980) bei diesen Patienten ausgeschlossen. Sie wurden in zwei gleich starke Gruppen eingeteilt, so daß nach Alter sowie Ausmaß und Dauer des Übergewichts kein Unterschied bestand. Die Patienten wurden in halbjährlichen Abständen ambulant kontrolliert. Wie zu Beginn wurden bei diesen Kontrollen folgende Blutwerte gemessen: Blutsenkung, Blutbild, Nüchternblutzucker, IGTT, Gewicht, Cholesterin und Triglyzeride, Serumglutamat-Oxalat-Transaminase (SGOT), Serumglutamat-Pyruvat-Transaminase (SGPT). Damit wurden den Stoffwechsel beeinträchtigende Krankheiten ausgeschlossen. Als Parameter der Atherosklerose wurde die dopplersonographisch bestimmte maximale Blutströmungsgeschwindigkeit in der Arteria dorsalis pedis verwendet. Alle Patienten hatten eine schmerzfreie Gehstrecke von über 200 m, die Arteria dorsalis pedis war gut tastbar. Oszillographisch fand sich kein Anhalt für eine Mediasklerose. Das Vorliegen einer Neuropathie wurde mit den üblichen klinischen Methoden ausgeschlossen.
Die erste Gruppe erhielt 2 x 3 mg Captopril täglich, die zweite Gruppe entsprechend Placebo. Die Patienten hatten die Auflage, keine den Stoffwechsel beeinträchtigenden Medikamente wie z.B. Diuretika, Betablocker oder dergleichen einzunehmen. In beiden Gruppen schieden über den Zeitraum von 3 Jahren 28 Patienten aus verschiedenen Gründen aus. Die Gruppen veränderten sich dadurch jedoch nicht so sehr, daß sie statistisch nicht mehr auswertbar gewesen wären. […] Die Ergebnisse des Versuchs sind in der nachstehenden Tabelle 1 dargestellt. Tabelle I

Question: For `C[C@H](CS)C(=O)N1CCC[C@H]1C(=O)O` [Captopril, 1-(2S)-3-Mercapto-2-methylpropionyl -L-prolin], which “GEWICHT (in % des Idealgew.)” value (1985 - 1 (start)) is on record?
Answer: 126,0 ± 1,1 % des Idealgew.

Question: What about the “GEWICHT (in % des Idealgew.)” value (1986 - 2) of the same compound?
Answer: 124,1 ± 1,6 % des Idealgew.

Question: What about the “GEWICHT (in % des Idealgew.)” value (1987 - 2) of the same compound?
Answer: 125,2 ± 1,1 % des Idealgew.

Question: And the “GEWICHT (in % des Idealgew.)” value (1988 - 1)?
Answer: 125,5 ± 1,6 % des Idealgew.
